Measurements reported in PubChem BioAssay AID504793 (Drosophila RNAi Screening Center, 2011).

Test: 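Genes required for cells to halt at G2/M after double-strand DNA breaks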 (primary screen)
System: Drosophila S2R+ cells
Reagent: long dsRNA against Drosophila genes, about 0.25 µg dsRNA per well
Duration: 4 days of dsRNA, then 4 hours of drug before read-out
Challenge: doxorubicin 0.5 µM for 4 hours to cause double-strand breaks, in cells also given a low, harmless dose of dsRNA against nbs to sensitise the assay
Read-out: 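Mitotic index as the number of phospho-histone H3-positive cells in each well following doxorubicin, given as raw counts without normalisation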
Scale: mitotic cells: higher = more cells in mitosis, weaker G2 arrest
Hit rule: 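a call needs confirmation in secondary tests, with other dsRNAs and a check of mitotic timing without damage, not just a high primary count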
Meaning of the calls: active = confirmed in follow-up tests; inactive = not confirmed
In all, the deposit lists about 23,000 reagents; this is a random part of those that have a named target and a result. Of all reagents, 62 (0.27%) were called active. 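Calls come from follow-up tests whose scores are not deposited, so confirmed genes may have low counts here; counts are not normalised per plate.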 Raw values vary from plate to plate and are shown uncorrected. Reagents against one gene are numbered here. No sequences are given here.

mitotic cells, replicate 1, by target gene and reagent
CG4009: #1 7 inactive
Icmt: #1 2 inactive
CG31462 (retired record): #1 1 inactive
CG15721: #1 12 inactive
CG14411: #1 15 inactive; #2 6 inactive
sens: #1 9 inactive; #2 15 inactive
CG32379: #1 6 inactive
Acox57D-p: #1 5 inactive
Epp: #1 8 inactive; #2 6 inactive
CG13426: #1 8 inactive
Rab3-GAP: #1 4 inactive; #2 4 inactive
mAChR-A: #1 10 inactive; #2 7 inactive
Oli: #1 7 inactive; #2 4 inactive
Kaz: #1 9 inactive
ppk30: #1 28 inactive
Cyp1: #1 12 inactive; #2 5 inactive
Rab5: #1 12 inactive; #2 9 inactive
Cyp6a17: #1 7 inactive
CG31705: #1 3 inactive; #2 9 inactive
CG14302: #1 11 inactive
snz: #1 6 inactive
CG12831: #1 6 inactive
CG17147: #1 8 inactive; #2 5 inactive
rdgB: #1 7 inactive; #2 7 inactive
CG32320: #1 10 inactive; #2 7 inactive
CG4452: #1 6 inactive
CG13659: #1 5 inactive; #2 3 inactive
C15: #1 4 inactive
Cyp6a22: #1 7 inactive; #2 4 inactive
CG14518: #1 13 inactive; #2 6 inactive

In a second layout: entries from further up
target gene | dsRNA no. | mitotic cells, replicate 1 | call
Oli | 1 | 7 | inactive
Oli | 2 | 4 | inactive
Kaz | 1 | 9 | inactive
ppk30 | 1 | 28 | inactive
Cyp1 | 1 | 12 | inactive
Cyp1 | 2 | 5 | inactive
Rab5 | 1 | 12 | inactive
